From PubChem BioAssay AID330 (DTP/NCI, 2004)
The list does not hold the whole screen: it gathers tests that were run many times, whatever their T/C, doses with no T/C, and many T/C values between a quarter and a half above the control. Further doses and runs are listed elsewhere. T/C is the treated group as % of the vehicle group. Some doses have a count of surviving animals in place of a T/C: the source files T/C as zero there, which appears to mark a toxic dose or a test without result, not a measured value. Some survivor counts are full or nearly so, which does not show that the dose was tolerated: survival well below the control is almost never listed, so the zero probably covers shortened survival too. Counts of survivors are from the toxicity check (mostly the fifth day) where no day follows; animals may have died later. Schedules are NCI's codes, read here as Q, the interval in days (D) or hours (H), X, the number of doses. Some entries hold several experiments; their values stand side by side, smallest first. Where survival is the endpoint, the PubChem record calls one and a half times the control and up active, and a quarter to a half above the control has no call in these data; cut-offs in other NCI protocols can differ.

Test system: P388 leukemia ip, CD2F1 mice, survival T/C
Experiment: NCI In Vivo Anticancer Drug Screen. Data for tumor model P388 Leukemia (intraperitoneal) in CD2F1 (CDF1) mice
Settings: T/C endpoint: median survival time, higher T/C = longer survival
[1] = dose: 32.0 mg/kg/injection, schedule: Q04DX003 (ip), vehicle: saline
[2] = dose: 25.0 mg/kg/injection, schedule: Q01DX005 (ip), vehicle: saline with Tween-80
[3] = dose: 50.0 mg/kg/injection, schedule: Q01DX005 (ip), vehicle: saline with Tween-80
[4] = dose: 100.0 mg/kg/injection, schedule: Q01DX005 (ip), vehicle: saline with Tween-80
[5] = dose: 200.0 mg/kg/injection, schedule: Q01DX005 (ip), vehicle: saline with Tween-80
[6] = dose: 60.0 mg/kg/injection, schedule: Q01DX005 (ip), vehicle: saline
[7] = dose: 120.0 mg/kg/injection, schedule: Q01DX005 (ip), vehicle: saline
[8] = dose: 240.0 mg/kg/injection, schedule: Q01DX005 (ip), vehicle: saline
[9] = dose: 25.0 mg/kg/injection, schedule: Q04DX002 (ip), vehicle: saline with Tween-80
[10] = dose: 50.0 mg/kg/injection, schedule: Q04DX002 (ip), vehicle: saline with Tween-80
[11] = dose: 200.0 mg/kg/injection, schedule: Q01DX009 (ip), vehicle: Klucel (hydroxypropylcellulose) (HPC)
[12] = dose: 60.0 mg/kg/injection, schedule: Q01DX005 (ip), vehicle: saline with Tween-80
[13] = dose: 100.0 mg/kg/injection, schedule: Q04DX002 (ip), vehicle: saline with Tween-80
[14] = dose: 240.0 mg/kg/injection, schedule: Q01DX005 (ip), vehicle: saline with Tween-80

## COc1cccc2c1C(=O)c1c(O)c3c(c(O)c1C2=O)C[C@@](O)(C(=O)COC(=O)c1cccnc1)C[C@@H]3OC1CC(N)C(O)C(C)O1 (some centres undefined)
dose: 0.25 mg/kg/injection, schedule: Q01DX009 (ip), vehicle: water
  T/C: 149 % of control
dose: 2.0 mg/kg/injection, schedule: Q01DX009 (ip), vehicle: saline with Tween-80
  T/C: 136 % of control
dose: 2.0 mg/kg/injection, schedule: Q04DX003 (ip), vehicle: saline
  T/C: 139 % of control
dose: 4.0 mg/kg/injection, schedule: Q04DX003 (ip), vehicle: saline
  T/C: 147 % of control
dose: 8.0 mg/kg/injection, schedule: Q04DX003 (ip), vehicle: saline
  T/C: 147 % of control
[1]
  T/C: 134 % of control
  survivor count: 4 of 6
dose: 32.0 mg/kg/injection, schedule: Q04DX003 (ip), vehicle: water
  T/C: 125 % of control
dose: 64.0 mg/kg/injection, schedule: Q04DX003 (ip), vehicle: saline
  survivor count: 4 of 6
dose: 128.0 mg/kg/injection, schedule: Q04DX003 (ip), vehicle: saline
  survivor count: 0 of 6 and 6 of 6

## Cc1ccc2c(c1)n([O-])c1cc(Cl)ccc1[n+]2=O
[2]
  T/C: 133 % of control
[3]
  T/C: 126 and 134 % of control
[4]
  T/C: 138 and 148 % of control
[5]
  survivor count: 4 of 6 and 6 of 6

## COc1c2occc2c(CN)c2ccc(=O)oc12
[6]
  survivor count: 0 of 6
[7]
  survivor count: 0 of 6
[8]
  survivor count: 0 of 6

## CCCCN=C(N)N/N=C(\C)c1cccc2c1Cc1c(/C(C)=N/NC(N)=NCCCC)cccc1-2
[9]
  survivor count: 3 of 6
[10]
  survivor count: 0 of 6

## Cc1ccc(NCC2(/N=C/c3ccccc3)OC(CO)C(O)C2O)cc1 (centres undefined)
dose: 177.0 mg/kg/injection, schedule: Q01DX009 (ip), vehicle: Klucel (hydroxypropylcellulose) (HPC)
  T/C: 149 % of control
dose: 600.0 mg/kg/injection, schedule: Q01DX009 (ip), vehicle: Klucel (hydroxypropylcellulose) (HPC)
  survivor count: 2 of 6 and 6 of 6

## CCN(CC)c1ccc2cc(S(=O)(=O)c3ccc(C)cc3)c(=O)oc2c1
[4]
  survivor count: 5 of 6
[5]
  survivor count: 6 of 6

## COc1ccc(CCNC2(C#N)CCCCC2)cc1OC
[11]
  survivor count: 0 of 6

## O=[N+]([O-])c1c(Nc2ccccc2)n(-c2ccccc2)c2ccc(O)cc12
[2]
  survivor count: 6 of 6
[3]
  survivor count: 6 of 6
[4]
  survivor count: 6 of 6
[5]
  survivor count: 6 of 6

## N#Cc1nc(CC(=O)c2ccccc2)c(CC(=O)c2ccccc2)nc1C#N
[12]
  survivor count: 6 of 6

## O=C1c2ccccc2CC1CN1CCCCC1 (centres undefined)
[9]
  survivor count: 2 of 6
[10]
  survivor count: 0 of 6
[13]
  survivor count: 0 of 6

## Cc1ccc(OC/C=N\N=C(N)N)cc1C
[14]
  survivor count: 3 of 6

## CC1C2(c3ccccc3)C(C(=O)c3ccccc3)NC(c3ccccc3)C12c1ccccc1 (centres undefined)
[5]
  survivor count: 6 of 6

## C#CCOCC(O)CCl (centres undefined)
dose: 400.0 mg/kg/injection, schedule: Q01DX009 (ip), vehicle: saline
  survivor count: 3 of 6

## CN=C(N)N/N=C(\C)c1ccc2c(c1)Cc1ccccc1-2
[9]
  T/C: 127 % of control
[10]
  T/C: 127 and 131 % of control
[13]
  T/C: 134 and 137 % of control
dose: 200.0 mg/kg/injection, schedule: Q04DX002 (ip), vehicle: saline with Tween-80
  T/C: 143 % of control

## Clc1cccc(Cl)c1C(Nc1nncs1)Nc1nncs1
[13]
  T/C: 127 and 148 % of control

## NS(=O)(=O)c1ccc2c(=O)c(C(=O)O)c[nH]c2c1
dose: 12.5 mg/kg/injection, schedule: Q01DX009 (ip), vehicle: saline with Tween-80
  survivor count: 6 of 6
dose: 25.0 mg/kg/injection, schedule: Q01DX009 (ip), vehicle: saline with Tween-80
  survivor count: 6 of 6
dose: 50.0 mg/kg/injection, schedule: Q01DX009 (ip), vehicle: saline with Tween-80
  survivor count: 6 of 6
dose: 200.0 mg/kg/injection, schedule: Q01DX009 (ip), vehicle: saline
  survivor count: 6 of 6

## CN(C)CCN1C(=O)Cc2ccccc2C1=O
dose: 100.0 mg/kg/injection, schedule: Q01DX001 (ip), vehicle: saline
  survivor count: 0 of 6
dose: 200.0 mg/kg/injection, schedule: Q01DX001 (ip), vehicle: saline
  survivor count: 0 of 6
dose: 400.0 mg/kg/injection, schedule: Q01DX001 (ip), vehicle: saline
  survivor count: 0 of 6

## CC(C)=CCc1cc(O)c(C)cc1O
dose: 100.0 mg/kg/injection, schedule: Q01DX009 (ip), vehicle: distilled water + Tween-80 + alcohol
  survivor count: 0 of 6
dose: 200.0 mg/kg/injection, schedule: Q01DX009 (ip), vehicle: distilled water + Tween-80 + alcohol
  survivor count: 0 of 6

## CNc1ccc2c(c1)C(=O)c1c(C)n(C)c3cccc-2c13
[4]
  survivor count: 6 of 6
[5]
  survivor count: 6 of 6

## CC(C)CC(=O)NC(C(=O)NC(C(=O)NC(CC(C)C)C(O)CC(=O)NC(C)C(=O)NC(CC(C)C)C(O)CC(=O)O)C(C)C)C(C)C (centres undefined)
dose: 12.5 mg/kg/injection, schedule: Q01DX009 (ip), vehicle: Klucel (hydroxypropylcellulose) (HPC)
  T/C: 90, 95, 98, 99 % of control
dose: 25.0 mg/kg/injection, schedule: Q01DX009 (ip), vehicle: Klucel (hydroxypropylcellulose) (HPC)
  T/C: 91, 94, 102, 117 % of control
dose: 100.0 mg/kg/injection, schedule: Q01DX009 (ip), vehicle: Klucel (hydroxypropylcellulose) (HPC)
  survivor count: 3 of 6
[11]
  survivor count: 1 of 6
dose: 400.0 mg/kg/injection, schedule: Q01DX009 (ip), vehicle: Klucel (hydroxypropylcellulose) (HPC)
  survivor count: 0 of 6

## COc1ccc(-c2nn3c(=O)c(Cc4ccccc4)c(O)nc3nc2-c2ccccc2)cc1
dose: 25.0 mg/kg/injection, schedule: Q01DX005 (ip), vehicle: Klucel (hydroxypropylcellulose) (HPC)
  survivor count: 6 of 6
dose: 50.0 mg/kg/injection, schedule: Q01DX005 (ip), vehicle: Klucel (hydroxypropylcellulose) (HPC)
  survivor count: 6 of 6
dose: 100.0 mg/kg/injection, schedule: Q01DX005 (ip), vehicle: Klucel (hydroxypropylcellulose) (HPC)
  survivor count: 6 of 6
dose: 200.0 mg/kg/injection, schedule: Q01DX005 (ip), vehicle: Klucel (hydroxypropylcellulose) (HPC)
  survivor count: 6 of 6

## CC(C)(C)c1ccc(N)c(C(O)(C(F)(F)F)C(F)(F)F)c1
[12]
  T/C: 90, 105, 106, 107 % of control
dose: 120.0 mg/kg/injection, schedule: Q01DX005 (ip), vehicle: saline with Tween-80
  T/C: 87, 98, 109, 122 % of control
[14]
  T/C: 100, 112, 113 % of control
  survivor count: 6 of 6

## CCN(CC)CC(C)(C)C(=O)/C=C/c1ccc(/C=C/C(=O)C(C)(C)CN(CC)CC)cc1
dose: 15.0 mg/kg/injection, schedule: Q01DX005 (ip), vehicle: saline
  T/C: 126 and 130 % of control
dose: 30.0 mg/kg/injection, schedule: Q01DX005 (ip), vehicle: saline
  T/C: 134 and 138 % of control
[6]
  survivor count: 4 of 6 and 6 of 6
[7]
  survivor count: 0 of 6
[8]
  survivor count: 0 of 6
